Measured values from publication PMC11328492.
These are yes or no findings as the source states them, for the method shown. Binding seen in cells or lysates may run through a third protein. Here binding means that the protein was enriched with, or labelled near, the bait; the list need not be complete. Where a sequence is shown, tags or fusion partners need not be part of it.

By UniProt entry, the sequences of proteins in these tests, tags left out.
UniProt P37231: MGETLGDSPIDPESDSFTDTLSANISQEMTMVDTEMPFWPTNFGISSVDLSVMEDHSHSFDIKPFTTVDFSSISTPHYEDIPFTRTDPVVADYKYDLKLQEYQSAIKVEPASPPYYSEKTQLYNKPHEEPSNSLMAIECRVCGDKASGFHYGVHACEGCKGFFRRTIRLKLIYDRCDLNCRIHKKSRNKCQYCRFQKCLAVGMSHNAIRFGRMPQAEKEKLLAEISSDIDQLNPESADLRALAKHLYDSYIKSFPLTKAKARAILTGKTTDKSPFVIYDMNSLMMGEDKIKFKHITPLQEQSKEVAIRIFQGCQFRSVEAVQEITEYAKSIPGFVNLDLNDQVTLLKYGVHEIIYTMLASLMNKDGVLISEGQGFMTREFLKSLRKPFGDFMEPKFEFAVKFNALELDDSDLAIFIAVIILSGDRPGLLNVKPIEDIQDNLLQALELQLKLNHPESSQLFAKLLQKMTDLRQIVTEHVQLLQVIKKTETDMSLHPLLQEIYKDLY

How the values were obtained:
[1] = target: T1, Flag-ZDHHC6 (3×Flag, pcDNA3.4), expressed in CRC cells (human) (UniProt Q9H6R6); experiment: affinity purification with mass spectrometry; IP-MS of HCT116, Caco-2, SNU-C2A and HT-29 cells transfected with Flag-ZDHHC6 and His-PPARγ
T1 sequence: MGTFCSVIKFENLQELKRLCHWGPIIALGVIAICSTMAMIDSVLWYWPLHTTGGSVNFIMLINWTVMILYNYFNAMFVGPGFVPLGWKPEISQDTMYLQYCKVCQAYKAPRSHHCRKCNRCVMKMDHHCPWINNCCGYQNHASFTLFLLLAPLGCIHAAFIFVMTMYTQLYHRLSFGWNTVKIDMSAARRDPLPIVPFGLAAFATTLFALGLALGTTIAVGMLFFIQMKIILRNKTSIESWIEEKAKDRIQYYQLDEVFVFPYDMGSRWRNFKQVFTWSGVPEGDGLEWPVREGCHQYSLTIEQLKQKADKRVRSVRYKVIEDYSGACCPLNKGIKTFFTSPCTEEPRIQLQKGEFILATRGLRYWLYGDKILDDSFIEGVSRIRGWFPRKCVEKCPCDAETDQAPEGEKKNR

[2] = target: T2, SFB-ZDHHC6 (S-protein-Flag-Streptavidin binding peptide tagged ZDHHC6) (human) (UniProt Q9H6R6); experiment: affinity purification with mass spectrometry; tandem affinity purification of SFB-ZDHHC6 from HCT116 cells 24 h after transfection, then mass spectrometry
T2 sequence: T1 sequence

Row | Substance | binding [1] | binding [2]
1 | His-PPARγ, expressed in CRC cells (from UniProt P37231 1-505) | binds | –
2 | Peroxisome proliferator-activated receptor gamma (PPARγ), endogenous (from UniProt P37231 1-505) | – | binds
